In PMC6250667:
These are yes or no findings as the source states them, for the method shown. Binding seen in cells or lysates may run through a third protein. Here binding means that the protein was enriched with, or labelled near, the bait; the list need not be complete. Sequences can lack the tags named with a protein.

Sequences of proteins named here, by UniProt entry; tags and fusion partners are left off.
UniProt P67775: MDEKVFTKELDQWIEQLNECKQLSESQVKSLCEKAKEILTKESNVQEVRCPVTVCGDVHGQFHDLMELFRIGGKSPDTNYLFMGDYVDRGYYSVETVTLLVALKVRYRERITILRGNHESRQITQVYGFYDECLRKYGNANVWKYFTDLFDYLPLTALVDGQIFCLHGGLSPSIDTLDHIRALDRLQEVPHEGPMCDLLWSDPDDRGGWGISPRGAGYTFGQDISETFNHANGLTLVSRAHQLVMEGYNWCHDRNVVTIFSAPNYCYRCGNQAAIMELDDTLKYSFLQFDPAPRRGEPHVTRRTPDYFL
UniProt P62714: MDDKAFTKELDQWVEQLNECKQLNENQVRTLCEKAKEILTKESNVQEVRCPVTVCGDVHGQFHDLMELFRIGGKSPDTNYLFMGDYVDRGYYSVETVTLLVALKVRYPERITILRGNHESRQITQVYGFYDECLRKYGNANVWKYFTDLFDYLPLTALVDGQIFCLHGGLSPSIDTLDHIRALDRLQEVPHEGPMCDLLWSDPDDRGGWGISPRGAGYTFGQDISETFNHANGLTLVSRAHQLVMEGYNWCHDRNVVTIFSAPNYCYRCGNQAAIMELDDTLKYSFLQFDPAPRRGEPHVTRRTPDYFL
UniProt P30153: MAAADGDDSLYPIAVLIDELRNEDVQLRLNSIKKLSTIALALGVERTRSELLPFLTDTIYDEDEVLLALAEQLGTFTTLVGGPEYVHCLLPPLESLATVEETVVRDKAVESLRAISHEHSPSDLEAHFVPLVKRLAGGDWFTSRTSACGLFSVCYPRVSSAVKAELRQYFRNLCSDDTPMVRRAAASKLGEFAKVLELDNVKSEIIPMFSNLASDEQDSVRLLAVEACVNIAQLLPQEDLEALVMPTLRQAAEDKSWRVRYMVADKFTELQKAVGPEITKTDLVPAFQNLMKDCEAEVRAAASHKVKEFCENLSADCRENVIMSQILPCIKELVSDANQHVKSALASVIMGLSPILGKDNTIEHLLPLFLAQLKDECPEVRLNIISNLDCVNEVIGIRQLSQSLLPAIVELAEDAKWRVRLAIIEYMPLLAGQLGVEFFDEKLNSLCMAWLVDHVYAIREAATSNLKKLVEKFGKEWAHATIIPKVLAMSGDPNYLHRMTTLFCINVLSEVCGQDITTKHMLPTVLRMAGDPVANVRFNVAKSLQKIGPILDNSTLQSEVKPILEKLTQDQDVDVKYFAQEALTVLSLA
UniProt P63151: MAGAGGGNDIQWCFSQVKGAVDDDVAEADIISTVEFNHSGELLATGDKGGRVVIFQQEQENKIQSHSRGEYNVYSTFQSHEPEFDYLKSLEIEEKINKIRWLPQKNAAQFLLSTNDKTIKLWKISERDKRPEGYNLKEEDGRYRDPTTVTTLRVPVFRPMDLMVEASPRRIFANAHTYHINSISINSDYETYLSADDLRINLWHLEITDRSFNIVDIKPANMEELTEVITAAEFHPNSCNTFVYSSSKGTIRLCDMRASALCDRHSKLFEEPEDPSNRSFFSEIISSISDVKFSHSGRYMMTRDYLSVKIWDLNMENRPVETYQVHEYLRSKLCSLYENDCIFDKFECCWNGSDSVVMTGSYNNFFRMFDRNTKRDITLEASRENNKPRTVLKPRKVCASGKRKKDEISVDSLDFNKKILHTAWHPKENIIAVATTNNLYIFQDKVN

T1: FLAG Foxi3 FL 1–399 (mouse) (UniProt D3Z120)
T1 sequence: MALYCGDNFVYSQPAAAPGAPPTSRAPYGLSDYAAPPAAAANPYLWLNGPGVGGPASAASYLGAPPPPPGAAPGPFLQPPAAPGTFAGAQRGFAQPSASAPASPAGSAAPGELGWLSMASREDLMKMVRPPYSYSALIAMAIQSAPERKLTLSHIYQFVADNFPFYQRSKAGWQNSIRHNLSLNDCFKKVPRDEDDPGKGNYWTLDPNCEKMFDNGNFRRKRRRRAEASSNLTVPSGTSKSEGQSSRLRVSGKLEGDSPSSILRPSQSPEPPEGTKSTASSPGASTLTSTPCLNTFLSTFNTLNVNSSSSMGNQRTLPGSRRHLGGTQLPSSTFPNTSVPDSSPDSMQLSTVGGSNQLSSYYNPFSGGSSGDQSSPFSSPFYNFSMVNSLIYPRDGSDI


Target: T1, FLAG Foxi3 FL 1–399 (mouse)
Assay: affinity purification with mass spectrometry; HEK-293T transfected with FLAG Foxi3 FL 1–399 (blank 3XFLAG vector as control); whole cell lysates 48 h after transfection; immunoprecipitation with FLAG beads, SDS-PAGE, in-gel trypsin digestion, nanoHPLC-MS/MS searched against human RefSeq

binding	Molecule
binds	PPP2CA (PP2A catalytic C subunit, isoform α), endogenous (from UniProt P67775 1-309) (enzyme)
binds	PPP2R2D (PP2A regulatory B subunit, isoform δ), endogenous (protein, UniProt Q66LE6 1-453) MAGAGGGGCPAGGNDFQWCFSQVKGAIDEDVAEADIISTVEFNYSGDLLATGDKGGRVVIFQREQENKSRPHSRGEYNVYSTFQSHEPEFDYLKSLEIEEKINKIRWLPQQNAAHFLLSTNDKTIKLWKISERDKRAEGYNLKDEDGRLRDPFRITALRVPILKPMDLMVEASPRRIFANAHTYHINSISVNSDHETYLSADDLRINLWHLEITDRSFNIVDIKPANMEELTEVITAAEFHPHQCNVFVYSSSKGTIRLCDMRSSALCDRHSKFFEEPEDPSSRSFFSEIISSISDVKFSHSGRYMMTRDYLSVKVWDLNMESRPVETHQVHEYLRSKLCSLYENDCIFDKFECCWNGSDSAIMTGSYNNFFRMFDRDTRRDVTLEASRESSKPRASLKPRKVCTGGKRRKDEISVDSLDFNKKILHTAWHPVDNVIAVAATNNLYIFQDKIN

Further lines, the molecule ahead of its results:

Molecule	binding
PPP2CB (PP2A catalytic C subunit, isoform β), endogenous (from UniProt P62714 1-309) (enzyme)	binds
PPP2R1A (PP2A scaffold A subunit, isoform α), endogenous (from UniProt P30153 1-589)	binds
PPP2R2A (PP2A regulatory B subunit, isoform α), endogenous (from UniProt P63151 1-447)	binds
